Measured values from publication PMC11782663.

Amino acid sequences for entries named in this document (tags omitted). A change or cut given only in a name is not applied to a line headed by its entry.
UniProt Q08775: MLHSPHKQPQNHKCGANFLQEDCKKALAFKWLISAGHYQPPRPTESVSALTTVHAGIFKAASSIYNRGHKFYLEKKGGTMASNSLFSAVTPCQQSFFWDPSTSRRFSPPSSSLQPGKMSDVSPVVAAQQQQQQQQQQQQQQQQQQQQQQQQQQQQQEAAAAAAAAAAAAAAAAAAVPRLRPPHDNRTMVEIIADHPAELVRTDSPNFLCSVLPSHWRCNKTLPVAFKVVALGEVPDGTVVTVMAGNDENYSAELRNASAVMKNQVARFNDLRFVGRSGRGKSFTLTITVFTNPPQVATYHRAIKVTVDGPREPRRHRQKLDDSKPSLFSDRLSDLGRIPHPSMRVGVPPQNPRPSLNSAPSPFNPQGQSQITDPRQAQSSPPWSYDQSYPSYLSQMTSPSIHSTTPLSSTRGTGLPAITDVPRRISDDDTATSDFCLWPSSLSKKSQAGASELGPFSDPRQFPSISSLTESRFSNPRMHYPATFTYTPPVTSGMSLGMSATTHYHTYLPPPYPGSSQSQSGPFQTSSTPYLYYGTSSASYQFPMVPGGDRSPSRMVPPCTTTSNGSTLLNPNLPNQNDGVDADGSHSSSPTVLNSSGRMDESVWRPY

Biological target: Runt-related transcription factor 2 (RUNX2), endogenous (mouse (endogenous in BMSCs)) (UniProt Q08775)
Test: affinity purification with mass spectrometry; binding proteins co-immunoprecipitated with RUNX2 on protein A/G magnetic beads from BMSCs of FXRfl/fl and FXRprx1 littermates after 4 days of osteogenic differentiation; eluates by LC-MS/MS

binding: binds
B1: Thoc6, endogenous (protein, UniProt Q5U4D9 1-341)
chain: MEHAAPLAVPLGQAEVFQALQRLHMTIFSQSVSPCGKFLAAGNNYGQIAIFSLSAALSSEAKEESKKPVVVFHAHDGPVYSMVSTDRHLLSAGDGEVKGWLWAEILKKGCKELWRRQPPYRTSLEVPEINALLLVPKENSLILAGGDCQLHSMDLETGAFTRALRGHTDYIHCLALRERSPEVLSGGEDGAVRLWDLRIAKEVQTIEVYKHEECSRPHNGRWIGCLATDSDWMVCGGGPALTLWHLRSSTPTTVFPIRAPQKHVTFYQDLILSAGQGCCVNHWQLSGELKAQVPGSSPGLLSLSLNQQPAAPECKVLTASGNSCRVDVFTNLGYRAFSLSF

These are yes or no findings as the source states them, for the method shown. In cells and extracts the contact can be indirect. Here binding means that the protein was enriched with, or labelled near, the bait; the list need not be complete.
